The supplement of paper PMC10331698
± gives the standard deviation of the averaged measurements. Most values lie at the level of the controls, where differences are scatter.

Key:
Assay in all cases: level (log10 ratio to DMSO vehicle control); higher = higher biomarker level / cell amount than vehicle control
[1] = compound: C=CC(=O)OCC(F)(F)C(F)(F)C(F)(F)C(F)(F)C(F)(F)C(F)(F)C(F)(F)C(F)F [1H,1H,9H-Perfluorononyl acrylate]; details: 2200 nM; in DMSO
Procedure: (§1)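 BioMAP Diversity Plus panel of 12 human primary cell co-culture systems (3C, 4H, LPS, SAg, BT, BF4T, BE3C, CASM3C, HDF3CGF, KF3CT, MyoF, Mphg). Compounds were added 1 h before stimulation and left for 24 h (MyoF 48 h; BT 72 h for soluble read-outs or 6 d for IgG). Biomarkers were read by ELISA, cytotoxicity by SRB, PBMC viability and proliferation by Alamar Blue. Each well value was divided by the mean of 8 DMSO control wells on the same plate and log10 transformed; duplicate blinded samples were tested at 4 concentrations.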

[2] = compound: CCOC(=O)CC(=O)C(F)(F)C(F)(F)F [Ethyl pentafluoropropionyl acetate]; details: 2200 nM; in DMSO
Procedure: as §1

[3] = compound: FC(F)(F)C(F)(F)C(F)(F)C(F)(F)C(F)(F)C(F)(F)C(F)(F)C(F)(F)CCS [2-(Perfluorooctyl)ethanthiol]; details: in DMSO
Procedure: as §1

Perfluorooctanamidine = compound: N=C(N)C(F)(F)C(F)(F)C(F)(F)C(F)(F)C(F)(F)C(F)(F)C(F)(F)F [Perfluorooctanamidine]; details: in DMSO
Procedure: as §1

[4] = compound: O=C(CC(=O)C(F)(F)C(F)(F)C(F)(F)F)c1cccs1 [(Perfluorobutyryl)-2-thenoylmethane]; details: 2200 nM; in DMSO
Procedure: as §1

Perfluorodecanoic acid = compound: O=C(O)C(F)(F)C(F)(F)C(F)(F)C(F)(F)C(F)(F)C(F)(F)C(F)(F)C(F)(F)C(F)(F)F [Perfluorodecanoic acid]; details: in DMSO
Procedure: as §1

Perfluorononanoic acid = compound: O=C(O)C(F)(F)C(F)(F)C(F)(F)C(F)(F)C(F)(F)C(F)(F)C(F)(F)C(F)(F)F [Perfluorononanoic acid]; details: 2200 nM; in DMSO
Procedure: as §1

[5] = compound: O=C(O)C(F)(F)C(F)(F)C(F)(F)C(F)(F)C(F)(F)C(F)(F)C(F)(F)F [Ammonium perfluorooctanoate]; details: 2200 nM; in DMSO
Procedure: as §1

Perfluorooctanoic acid = compound: O=C(O)C(F)(F)C(F)(F)C(F)(F)C(F)(F)C(F)(F)C(F)(F)C(F)(F)F [Perfluorooctanoic acid]; details: 2200 nM; in DMSO
Procedure: as §1

[6] = compound: O=C(O)C(F)(F)OC(F)(F)C(F)(F)OC(F)(F)C(F)(F)OC(F)(F)C(F)(F)C(F)(F)C(F)(F)F [Perfluoro-3,6,9-trioxatridecanoic acid]; details: 2200 nM; in DMSO
Procedure: as §1

[7] = compound: O=C(O)C(F)(F)OC(F)(F)C(F)(F)OC(F)(F)F [Perfluoro-3,6-dioxaheptanoic acid]; details: 2200 nM; in DMSO
Procedure: as §1

[8] = compound: O=C(O)CCC(F)(C(F)(F)F)C(F)(F)F [4,4-bis(Trifluoromethyl)-4-fluoropropanoic acid]; details: 2200 nM; in DMSO
Procedure: as §1

[9] = compound: OCC(F)(F)C(F)(F)C(F)(F)C(F)(F)C(F)(F)C(F)(F)C(F)(F)C(F)(F)CO [1H,1H,10H,10H-Perfluorodecane-1,10-diol]; details: 2200 nM; in DMSO
Procedure: as §1

[10] = compound: OCC(F)(F)OC(F)(F)C(F)(F)OC(F)(F)C(F)(F)OC(F)(F)CO [1H,1H,11H,11H-Perfluorotetraethylene glycol]; details: 2200 nM; in DMSO
Procedure: as §1

Row | Test System | level (log10) [1] | level (log10) [2] | level (log10) ([3]; 740 nM) | level (log10) ([3]; 2200 nM) | level (log10) (Perfluorooctanamidine; 2200 nM) | level (log10) (Perfluorooctanamidine; 6700 nM) | level (log10) (Perfluorooctanamidine; 20000 nM) | level (log10) (Perfluorooctanamidine; 60000 nM) | level (log10) [4] | level (log10) (Perfluorodecanoic acid; 2200 nM) | level (log10) (Perfluorodecanoic acid; 6700 nM) | level (log10) (Perfluorodecanoic acid; 20000 nM) | level (log10) (Perfluorononanoic acid) | level (log10) [5] | level (log10) (Perfluorooctanoic acid) | level (log10) [6] | level (log10) [7] | level (log10) [8] | level (log10) [9] | level (log10) [10]
1 | HDF3CGF:M-CSF | -0.007 ± 0.021 | 0.021 ± 0.048 | -0.002 ± 0.0099 | -0.007 ± 0.011 | -0.005 ± 0.014 | -0.017 ± 0.014 | -0.0485 ± 0.018 | -0.177 | 0.0295 ± 0.0078 | -0.001 ± 0.031 | 0.023 ± 0.0057 | -0.275 ± 0.018 | 0.0135 ± 0.043 | 0.0045 ± 0.00071 | 0.0045 ± 0.0078 | 0.023 ± 0.014 | -0.0215 ± 0.022 | -0.056 ± 0.057 | 0.016 ± 0.069 | 0.023 ± 0.12
2 | HDF3CGF:TIMP-1 | -0.033 ± 0.073 | -0.016 ± 0.033 | 0.0035 ± 0.0035 | 0.0055 ± 0.032 | 0.028 | 0.013 ± 0.042 | 0.018 ± 0.05 | 0.092 | 0.0555 ± 0.0021 | 0.017 ± 0.03 | 0.016 ± 0.037 | -0.0995 ± 0.03 | -0.0405 ± 0.037 | 0.0055 ± 0.0092 | -0.0085 ± 0.047 | -0.018 ± 0.0057 | -0.017 ± 0.018 | -0.0265 ± 0.015 | 0.0065 ± 0.08 | 0.005 ± 0.079
3 | BT:sTNF-alpha | 0.0185 ± 0.2 | -0.153 ± 0.16 | -0.0095 ± 0.079 | 0.0255 ± 0.18 | 0.126 ± 0.0014 | 0.102 ± 0.099 | 0.0345 ± 0.084 | 0.01 | 0.142 ± 0.018 | 0.0195 ± 0.069 | 0.0625 ± 0.047 | 0.018 ± 0.0099 | -0.0495 ± 0.019 | -0.047 ± 0.12 | 0.199 ± 0.016 | 0.0375 ± 0.036 | 0.0375 ± 0.033 | 0.116 ± 0.012 | 0.027 ± 0.21 | -0.113 ± 0.028
4 | lMphg:CXCL8/IL-8 | 0.0075 ± 0.013 | 0.028 ± 0.058 | 0.0425 ± 0.064 | 0.024 ± 0.0014 | -0.0115 ± 0.011 | 0.011 | 0.0425 ± 0.019 | 0.175 | -0.006 ± 0.041 | 0.021 ± 0.0085 | 0.0415 ± 0.049 | 0.04 ± 0.023 | 0.052 ± 0.014 | 0.011 ± 0.033 | 0.0375 ± 0.019 | 0.0525 ± 0.0021 | 0.0315 ± 0.011 | 0.045 ± 0.058 | -0.004 ± 0.027 | -0.0005 ± 0.03
5 | BE3C:CXCL10/IP-10 | -0.005 ± 0.011 | -0.014 ± 0.0085 | 0.0265 ± 0.064 | 0.045 ± 0.044 | 0.0045 ± 0.012 | 0.0045 ± 0.023 | -0.0055 ± 0.0035 | 0.003 | 0.0105 ± 0.011 | 0.0245 ± 0.0092 | -0.188 ± 0.088 | -1.16 | -0.033 ± 0.0028 | 0.029 ± 0.011 | -0.0095 ± 0.033 | 0.029 ± 0.042 | -0.0075 ± 0.019 | 0.011 ± 0.017 | -0.01 ± 0.023 | -0.0115 ± 0.013
6 | BE3C:MMP-1 | -0.003 ± 0.045 | 0.004 ± 0.052 | 0.033 ± 0.048 | 0.01 ± 0.03 | 0.0585 ± 0.0064 | 0.0525 ± 0.03 | 0.057 ± 0.044 | 0.262 | 0.0275 ± 0.005 | 0.021 ± 0.041 | 0.211 ± 0.041 | -0.4875 ± 0.0035 | -0.003 ± 0.034 | 0.013 ± 0.0085 | 0.0325 ± 0.07 | 0.099 ± 0.024 | -0.03 ± 0.059 | 0.0385 ± 0.05 | 0.033 ± 0.0028 | 0.014 ± 0.0099
7 | HDF3CGF:CXCL11/I-TAC | -0.011 ± 0.037 | -0.0325 ± 0.00071 | -0.0125 ± 0.00071 | -0.018 ± 0.037 | 0.0095 ± 0.021 | 0.024 ± 0.025 | 0.0285 ± 0.029 | -0.119 | 0.009 ± 0.0071 | -0.0015 ± 0.00071 | 0.046 ± 0.0014 | -0.469 ± 0.28 | 0.0045 ± 0.0035 | -0.0025 ± 0.012 | 0.001 ± 0.0014 | -0.01 ± 0.016 | -0.01 ± 0.023 | -0.085 ± 0.034 | -0.0115 ± 0.018 | -0.0085 ± 0.053
8 | KF3CT:MMP-9 | 0.0205 ± 0.052 | -0.0155 ± 0.012 | -0.0205 ± 0.035 | -0.0145 ± 0.026 | -0.002 ± 0.02 | -0.006 ± 0.0028 | -0.0275 ± 0.023 | -0.032 | -0.028 ± 0.027 | -0.049 ± 0.0057 | -0.103 ± 0.037 | -0.308 ± 0.0028 | -0.0375 ± 0.019 | -0.0075 ± 0.03 | -0.0235 ± 0.019 | -0.048 ± 0.0071 | -0.051 ± 0.021 | -0.021 ± 0.025 | 0.01 ± 0.051 | 0.0265 ± 0.012
9 | CASM3C:CXCL9/MIG | 0.02 ± 0.027 | 0 ± 0.028 | 0.001 ± 0.081 | -0.0075 ± 0.077 | 0.041 ± 0.034 | -0.005 ± 0.013 | -0.017 ± 0.024 | 0.069 | 0.018 ± 0.0099 | 0.0075 ± 0.019 | -0.012 ± 0.0028 | -0.0055 ± 0.0064 | 0.029 ± 0.0071 | 0.02 ± 0.0071 | 0.019 ± 0.038 | 0.022 ± 0.041 | 0.051 ± 0.033 | 0.008 ± 0.048 | 0.007 ± 0.0071 | 0.028 ± 0.051
10 | BF4T:PAI-I | 0.011 ± 0.016 | 0.0015 ± 0.013 | -0.019 ± 0.023 | -0.014 ± 0.0028 | 0.007 | 0.007 ± 0.013 | -0.001 ± 0.03 | 0.03 | 0.0055 ± 0.0092 | 0.017 ± 0.013 | 0.0185 ± 0.00071 | -0.119 ± 0.043 | -0.0195 ± 0.023 | 0.0105 ± 0.011 | 0.01 ± 0.0085 | -0.007 ± 0.0099 | -0.0245 ± 0.03 | 0.014 ± 0.0057 | 0.0185 ± 0.039 | -0.0015 ± 0.018
11 | BF4T:CXCL8/IL-8 | 0.0255 ± 0.063 | 0.0045 ± 0.042 | 0.0675 ± 0.08 | 0.0455 ± 0.061 | 0.0045 ± 0.028 | 0.0025 ± 0.016 | 0.002 ± 0.034 | 0 | 0.0215 ± 0.005 | 0.066 ± 0.0085 | 0.0395 ± 0.012 | -0.293 ± 0.076 | 0.021 ± 0.0057 | 0.0275 ± 0.0035 | 0.005 ± 0.031 | 0.009 ± 0.025 | 0.0415 ± 0.0092 | 0.0135 ± 0.012 | 0.021 ± 0.011 | 0 ± 0.016
12 | MyoF:Collagen IV | -0.0155 ± 0.049 | -0.0035 ± 0.012 | -0.01 ± 0.044 | 0.018 ± 0.065 | 0.023 ± 0.028 | 0.0195 ± 0.03 | 0.044 ± 0.018 | 0.117 | 0.0035 ± 0.11 | 0.102 ± 0.018 | 0.334 ± 0.037 | 0.38 ± 0.086 | 0.0255 ± 0.03 | 0.0365 ± 0.011 | 0.0065 ± 0.016 | 0.046 ± 0.11 | 0.0005 ± 0.011 | -0.0225 ± 0.025 | -0.0005 ± 0.018 | -0.0125 ± 0.012

Limited to level (log10) (Perfluorooctanamidine; 20000 nM), level (log10) [10] and level (log10) (Perfluorodecanoic acid; 6700 nM), for some of the entries so far:
Row	Test System	level (log10) (Perfluorooctanamidine; 20000 nM)	level (log10) [10]	level (log10) (Perfluorodecanoic acid; 6700 nM)
5	BE3C:CXCL10/IP-10	-0.0055 ± 0.0035	-0.0115 ± 0.013	-0.188 ± 0.088
6	BE3C:MMP-1	0.057 ± 0.044	0.014 ± 0.0099	0.211 ± 0.041
